Experimental data taken from patent publication US20030165973A1.
Results are given in words; binding and its absence hold for the method and conditions named. Binding seen in cells or lysates may run through a third protein. Binding can be weak; no strength is given. Sequences can lack the tags named with a protein.

Target: PPAR-γ
Assay: co-immunoprecipitation from transfected COS cell extracts with rabbit anti-murine PPAR-γ, then anti-HA Western blot (ECL)

B1: HA-tagged PGC-1-like protein polypeptide (protein, not shown: small tags and cut ends)
chain: MPPVYASEYVLPLQGGGSGEEQLYADFPELDLSQLDASDFDSATCFGELQWCPENSETEPNQYSPDDSELFQIDSENEALLAELTKTLDDIPEDDVGLAAFPALDGGDALSCTSASPAPSSAPPSPAPEKPSAPAPEVDELSLEEEEEEEEEEKEEEEEWGRKRPGRGLPWTKLGRKLESSVCPVRRSRRLNPELGPWLTFADEPLVPSEPQGALPSLCLAPKAYDVERELGSPTDEDSGQDQQLLRGPQIPALESPCESGDPTFGKKSFEQTLTVELCGTAGLTPPTTPPYKPTEEDPFKPDIKHSLGKEIALSLPSPEGLSLKATPGAAHKLPKKHPERSELLSHLRHATAQPASQAGQKRPFSCSFGDHDYCQVLRPEGVLQRKVLRSWEPSGVHLEDWPQQGAPWAEAQAPGREEDRSCDAGAPPKDSTLLRDHEIRASLTKHFGLLETALEEEDLASCKSPEYDTVFEDSSSSSGESSFLPEEEEEEGEEEEEDDEEEDSGVSPTCSDHCPYQSPPSKANRQLCSRSRSSSGSSPCHSWSPATRRNFSSRGARSPRREDPWEACSETEAASPSVAHVLVRSLEDWHCPLSDSSRYCSLSQASWTRTRTPREPTPRGAPGSQAMTESLSVLLLGQGEGRVVYIQNLSSDMSSRELKRRFEVFGEIEECEVLTRNRRGEKYGFITYRCSEHAALSLTKGAALRKRNEPSFQLSYGGLRHFCWPRYTDYDSNSEEALPASGKSKYEAMDFDSLLKEAQQSLH
With B1 the binding was “binds”.
